Measurements published in the supplement of paper PMC10849652.
The other results are listed elsewhere or left out.

Protein sequences, listed by entry. Tags and fused reporters are not part of them. Lines headed by an entry give the natural chain unless they say otherwise; changes in a name come on top.
UniProt O60563, whole entry, looked up: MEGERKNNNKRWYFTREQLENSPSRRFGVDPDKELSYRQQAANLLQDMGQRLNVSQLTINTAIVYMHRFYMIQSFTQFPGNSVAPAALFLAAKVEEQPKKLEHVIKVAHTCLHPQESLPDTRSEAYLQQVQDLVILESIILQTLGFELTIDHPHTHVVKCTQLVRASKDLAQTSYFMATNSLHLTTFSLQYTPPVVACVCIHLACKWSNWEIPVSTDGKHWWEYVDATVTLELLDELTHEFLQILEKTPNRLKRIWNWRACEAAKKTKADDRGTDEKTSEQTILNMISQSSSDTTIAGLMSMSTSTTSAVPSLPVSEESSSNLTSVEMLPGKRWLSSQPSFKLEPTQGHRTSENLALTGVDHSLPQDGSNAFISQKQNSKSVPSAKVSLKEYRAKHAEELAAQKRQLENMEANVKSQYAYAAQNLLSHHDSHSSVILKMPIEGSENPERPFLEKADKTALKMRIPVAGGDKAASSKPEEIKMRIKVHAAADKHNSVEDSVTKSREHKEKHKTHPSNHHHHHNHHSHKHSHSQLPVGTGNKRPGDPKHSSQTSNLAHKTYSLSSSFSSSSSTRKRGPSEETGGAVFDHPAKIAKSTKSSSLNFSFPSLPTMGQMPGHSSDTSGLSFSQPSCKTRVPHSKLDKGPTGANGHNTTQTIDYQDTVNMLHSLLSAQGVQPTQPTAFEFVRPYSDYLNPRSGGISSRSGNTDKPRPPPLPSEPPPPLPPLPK
UniProt Q9Y3X0: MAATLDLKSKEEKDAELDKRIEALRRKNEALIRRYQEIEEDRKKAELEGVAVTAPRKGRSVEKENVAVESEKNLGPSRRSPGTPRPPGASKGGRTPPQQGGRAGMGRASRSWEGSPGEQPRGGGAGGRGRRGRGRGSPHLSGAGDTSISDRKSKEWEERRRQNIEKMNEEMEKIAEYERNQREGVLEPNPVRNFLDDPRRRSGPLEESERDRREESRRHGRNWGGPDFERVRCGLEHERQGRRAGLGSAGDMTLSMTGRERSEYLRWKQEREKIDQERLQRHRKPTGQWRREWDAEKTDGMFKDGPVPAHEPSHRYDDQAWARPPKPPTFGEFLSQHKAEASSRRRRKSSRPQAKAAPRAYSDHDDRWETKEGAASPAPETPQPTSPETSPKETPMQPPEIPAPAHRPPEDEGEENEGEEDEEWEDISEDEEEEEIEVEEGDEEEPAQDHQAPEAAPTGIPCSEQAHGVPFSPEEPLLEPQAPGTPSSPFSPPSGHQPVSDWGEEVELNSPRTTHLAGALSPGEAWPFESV
UniProt P48509: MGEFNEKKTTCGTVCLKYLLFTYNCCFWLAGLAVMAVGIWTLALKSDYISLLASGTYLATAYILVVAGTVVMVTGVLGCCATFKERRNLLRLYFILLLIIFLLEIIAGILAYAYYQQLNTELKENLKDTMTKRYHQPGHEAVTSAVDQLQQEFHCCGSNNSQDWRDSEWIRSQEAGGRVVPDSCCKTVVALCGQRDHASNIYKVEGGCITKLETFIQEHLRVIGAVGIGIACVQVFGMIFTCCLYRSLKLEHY
UniProt O15234, whole entry, looked up: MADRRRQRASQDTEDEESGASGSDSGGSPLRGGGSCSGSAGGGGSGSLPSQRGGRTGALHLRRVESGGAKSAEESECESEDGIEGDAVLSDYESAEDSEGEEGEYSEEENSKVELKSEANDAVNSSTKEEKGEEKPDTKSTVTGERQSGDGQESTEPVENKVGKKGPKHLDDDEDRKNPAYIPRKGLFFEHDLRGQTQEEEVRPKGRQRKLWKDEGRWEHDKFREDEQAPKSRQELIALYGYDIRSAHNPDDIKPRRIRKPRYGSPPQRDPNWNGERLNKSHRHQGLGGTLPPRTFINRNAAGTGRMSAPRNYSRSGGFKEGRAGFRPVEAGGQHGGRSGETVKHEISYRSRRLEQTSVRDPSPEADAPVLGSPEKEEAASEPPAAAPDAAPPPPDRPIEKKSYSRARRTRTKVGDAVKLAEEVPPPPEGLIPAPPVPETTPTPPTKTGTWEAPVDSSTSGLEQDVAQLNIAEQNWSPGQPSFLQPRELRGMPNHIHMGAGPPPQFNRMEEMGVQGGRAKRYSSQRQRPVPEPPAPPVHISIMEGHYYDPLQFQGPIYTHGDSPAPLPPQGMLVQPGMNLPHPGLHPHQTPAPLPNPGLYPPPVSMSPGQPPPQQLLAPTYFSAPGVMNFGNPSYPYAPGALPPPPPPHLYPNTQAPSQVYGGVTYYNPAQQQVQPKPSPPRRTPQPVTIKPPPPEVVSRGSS
UniProt P86791: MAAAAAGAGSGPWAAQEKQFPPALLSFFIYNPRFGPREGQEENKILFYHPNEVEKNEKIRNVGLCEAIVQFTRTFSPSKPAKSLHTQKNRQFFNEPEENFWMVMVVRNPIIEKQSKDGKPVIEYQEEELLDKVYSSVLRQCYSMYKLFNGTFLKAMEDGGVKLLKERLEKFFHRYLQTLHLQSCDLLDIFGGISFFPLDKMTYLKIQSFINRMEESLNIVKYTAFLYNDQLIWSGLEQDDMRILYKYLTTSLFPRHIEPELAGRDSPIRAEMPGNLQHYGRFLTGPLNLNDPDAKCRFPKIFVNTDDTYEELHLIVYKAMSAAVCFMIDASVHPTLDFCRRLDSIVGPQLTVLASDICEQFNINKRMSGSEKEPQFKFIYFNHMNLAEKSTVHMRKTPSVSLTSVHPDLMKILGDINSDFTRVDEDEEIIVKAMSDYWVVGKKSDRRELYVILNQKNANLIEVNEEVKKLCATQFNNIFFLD
UniProt Q8IX12: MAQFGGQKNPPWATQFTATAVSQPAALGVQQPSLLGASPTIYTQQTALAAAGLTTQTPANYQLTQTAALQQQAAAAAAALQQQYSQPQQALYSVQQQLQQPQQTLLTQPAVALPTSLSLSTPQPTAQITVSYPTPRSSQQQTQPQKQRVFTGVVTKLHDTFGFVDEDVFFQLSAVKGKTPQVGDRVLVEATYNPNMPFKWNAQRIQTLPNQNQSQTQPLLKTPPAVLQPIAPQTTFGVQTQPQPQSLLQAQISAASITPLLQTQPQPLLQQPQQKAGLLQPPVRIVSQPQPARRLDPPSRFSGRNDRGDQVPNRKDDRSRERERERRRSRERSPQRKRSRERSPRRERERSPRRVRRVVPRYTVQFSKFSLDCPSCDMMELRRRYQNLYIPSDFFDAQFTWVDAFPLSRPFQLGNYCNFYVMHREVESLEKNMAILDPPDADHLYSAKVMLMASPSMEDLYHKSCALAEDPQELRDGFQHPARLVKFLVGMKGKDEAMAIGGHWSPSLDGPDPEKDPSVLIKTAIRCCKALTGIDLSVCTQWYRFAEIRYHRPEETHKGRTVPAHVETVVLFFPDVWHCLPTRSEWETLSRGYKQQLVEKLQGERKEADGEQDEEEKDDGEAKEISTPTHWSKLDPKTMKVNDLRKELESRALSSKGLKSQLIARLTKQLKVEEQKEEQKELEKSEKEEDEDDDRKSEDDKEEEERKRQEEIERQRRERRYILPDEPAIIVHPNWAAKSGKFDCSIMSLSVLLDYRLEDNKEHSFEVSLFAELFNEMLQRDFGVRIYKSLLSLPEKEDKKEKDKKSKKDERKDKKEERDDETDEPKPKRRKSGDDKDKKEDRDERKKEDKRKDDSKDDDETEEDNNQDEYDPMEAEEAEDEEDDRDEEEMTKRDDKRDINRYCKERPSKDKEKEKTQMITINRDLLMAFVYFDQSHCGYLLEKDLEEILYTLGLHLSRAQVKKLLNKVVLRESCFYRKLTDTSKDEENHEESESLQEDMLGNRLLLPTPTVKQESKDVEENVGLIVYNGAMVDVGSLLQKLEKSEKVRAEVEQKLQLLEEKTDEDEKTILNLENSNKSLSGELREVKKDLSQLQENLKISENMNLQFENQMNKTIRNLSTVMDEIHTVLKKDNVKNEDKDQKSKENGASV
UniProt Q8N163, whole entry, looked up: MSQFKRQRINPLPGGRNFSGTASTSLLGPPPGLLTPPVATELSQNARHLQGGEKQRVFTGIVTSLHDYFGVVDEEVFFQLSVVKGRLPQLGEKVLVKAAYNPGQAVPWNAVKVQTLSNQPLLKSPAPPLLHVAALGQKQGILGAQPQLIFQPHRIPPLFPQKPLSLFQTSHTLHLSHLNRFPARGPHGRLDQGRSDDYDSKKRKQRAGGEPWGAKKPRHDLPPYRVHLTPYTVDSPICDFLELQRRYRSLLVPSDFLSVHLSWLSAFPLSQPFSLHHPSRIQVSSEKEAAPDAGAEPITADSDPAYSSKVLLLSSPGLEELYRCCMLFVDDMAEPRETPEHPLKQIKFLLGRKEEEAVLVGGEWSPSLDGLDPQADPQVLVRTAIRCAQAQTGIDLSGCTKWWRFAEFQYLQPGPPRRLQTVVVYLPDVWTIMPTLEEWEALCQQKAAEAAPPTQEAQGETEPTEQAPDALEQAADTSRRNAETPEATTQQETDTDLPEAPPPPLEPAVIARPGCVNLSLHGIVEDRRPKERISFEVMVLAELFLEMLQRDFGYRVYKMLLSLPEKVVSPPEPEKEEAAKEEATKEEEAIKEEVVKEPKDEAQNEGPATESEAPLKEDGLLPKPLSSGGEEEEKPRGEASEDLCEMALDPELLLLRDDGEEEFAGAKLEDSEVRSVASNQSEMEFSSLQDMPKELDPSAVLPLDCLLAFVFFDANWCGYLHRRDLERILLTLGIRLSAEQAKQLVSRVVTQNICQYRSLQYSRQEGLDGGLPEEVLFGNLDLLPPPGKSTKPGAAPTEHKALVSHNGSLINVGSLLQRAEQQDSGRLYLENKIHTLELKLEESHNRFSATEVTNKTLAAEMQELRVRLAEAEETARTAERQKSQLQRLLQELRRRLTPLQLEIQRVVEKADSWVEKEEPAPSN
UniProt Q5M9N0: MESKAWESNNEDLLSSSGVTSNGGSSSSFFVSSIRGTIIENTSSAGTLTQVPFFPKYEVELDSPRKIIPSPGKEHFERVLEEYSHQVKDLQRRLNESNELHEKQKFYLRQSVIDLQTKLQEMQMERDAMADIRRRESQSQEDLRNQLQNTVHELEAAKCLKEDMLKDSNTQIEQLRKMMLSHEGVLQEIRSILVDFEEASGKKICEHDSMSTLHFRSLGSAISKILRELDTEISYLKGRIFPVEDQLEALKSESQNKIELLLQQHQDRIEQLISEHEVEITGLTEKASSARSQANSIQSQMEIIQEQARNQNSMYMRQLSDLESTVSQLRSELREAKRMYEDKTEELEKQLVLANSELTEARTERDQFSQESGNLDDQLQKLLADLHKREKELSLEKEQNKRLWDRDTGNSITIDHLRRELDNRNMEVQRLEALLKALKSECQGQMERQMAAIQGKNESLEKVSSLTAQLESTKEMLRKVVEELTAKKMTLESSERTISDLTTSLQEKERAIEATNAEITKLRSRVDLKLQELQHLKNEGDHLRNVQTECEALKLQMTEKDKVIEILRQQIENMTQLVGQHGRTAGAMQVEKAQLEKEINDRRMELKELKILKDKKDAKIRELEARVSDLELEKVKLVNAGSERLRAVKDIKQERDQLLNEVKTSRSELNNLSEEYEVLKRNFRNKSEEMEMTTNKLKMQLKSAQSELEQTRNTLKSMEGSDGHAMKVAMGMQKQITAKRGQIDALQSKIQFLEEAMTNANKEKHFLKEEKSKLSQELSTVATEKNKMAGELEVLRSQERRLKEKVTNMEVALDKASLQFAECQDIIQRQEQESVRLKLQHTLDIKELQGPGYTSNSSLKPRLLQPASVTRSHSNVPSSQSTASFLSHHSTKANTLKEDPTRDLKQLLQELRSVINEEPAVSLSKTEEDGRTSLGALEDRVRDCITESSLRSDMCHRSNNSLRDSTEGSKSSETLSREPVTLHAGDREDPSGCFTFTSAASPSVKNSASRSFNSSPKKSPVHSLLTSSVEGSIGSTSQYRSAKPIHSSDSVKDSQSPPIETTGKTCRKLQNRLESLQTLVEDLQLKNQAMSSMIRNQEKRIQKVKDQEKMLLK
UniProt P83916, whole entry, looked up: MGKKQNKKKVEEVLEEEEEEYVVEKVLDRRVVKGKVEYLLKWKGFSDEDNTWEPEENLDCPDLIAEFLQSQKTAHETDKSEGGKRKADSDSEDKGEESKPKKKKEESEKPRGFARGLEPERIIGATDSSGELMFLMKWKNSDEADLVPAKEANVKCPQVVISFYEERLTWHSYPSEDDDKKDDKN
UniProt P14635, whole entry, looked up: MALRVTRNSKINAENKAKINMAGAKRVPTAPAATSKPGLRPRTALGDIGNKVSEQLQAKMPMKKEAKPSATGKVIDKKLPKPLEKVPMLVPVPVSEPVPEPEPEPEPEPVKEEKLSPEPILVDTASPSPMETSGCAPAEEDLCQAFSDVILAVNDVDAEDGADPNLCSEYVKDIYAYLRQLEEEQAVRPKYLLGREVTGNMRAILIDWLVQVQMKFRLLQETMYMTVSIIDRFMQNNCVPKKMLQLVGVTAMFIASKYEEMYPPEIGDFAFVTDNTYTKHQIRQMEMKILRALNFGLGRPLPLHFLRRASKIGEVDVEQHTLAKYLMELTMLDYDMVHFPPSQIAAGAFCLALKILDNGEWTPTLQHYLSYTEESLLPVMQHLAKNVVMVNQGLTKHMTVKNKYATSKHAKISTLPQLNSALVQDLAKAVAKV

Assays:
Assay in all cases: log2 fold change, soluble protein after heating vs DMSO (PISA); higher = thermal stabilisation; K562 cells, 10 uM, 30 min; active = over 0.2 and 3.5 SD of the protein, either way, in both replicates (recomputed)
[1] = compound: COC1=CC=C(C=C1)CN2C=CC3=C2C=C(C=C3)C(=O)NO
How it was run: (§1)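 Aliquots of K562 cells (2×10^6 cells/mL) treated with 10 μM compound for 30 min were heated for 3 min over 48°C-58°C. After pooling and extraction in PBS with 0.5% NP-40 at 4°C, soluble protein from a 21,000xg, 90 min spin was quantified by TMTpro 16plex LC-MS/MS with channel sums equalised. Thermal stability is expressed against control samples, from duplicates, as a log2 fold change.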

filanesib = compound: CON(C)C(=O)N1N=C(c2cc(F)ccc2F)S[C@@]1(CCCN)c1ccccc1 [filanesib]
How it was run: as §1

zotarolimus = compound: CO[C@H]1C[C@@H]2CC[C@@H](C)[C@@](O)(O2)C(=O)C(=O)N2CCCC[C@H]2C(=O)O[C@H]([C@H](C)C[C@@H]2CC[C@H](n3cnnn3)[C@H](OC)C2)CC(=O)[C@H](C)/C=C(\C)[C@@H](O)[C@@H](OC)C(=O)[C@H](C)C[C@H](C)/C=C/C=C/C=C/1C [zotarolimus]
How it was run: as §1

idasanutlin = compound: COc1cc(C(=O)O)ccc1NC(=O)[C@@H]1N[C@@H](CC(C)(C)C)[C@](C#N)(c2ccc(Cl)cc2F)[C@H]1c1cccc(Cl)c1F [idasanutlin]
How it was run: as §1

alisertib = compound: COc1cc(Nc2ncc3c(n2)-c2ccc(Cl)cc2C(c2c(F)cccc2OC)=NC3)ccc1C(=O)O [alisertib]
How it was run: as §1

[2] = compound: COc1cc2nc(-c3cc(F)ccc3O)nc(N[C@@H]3CNC[C@H]3C(C)(C)O)c2cc1OC
How it was run: as §1

gefitinib = compound: COc1cc2ncnc(Nc3ccc(F)c(Cl)c3)c2cc1OCCCN1CCOCC1 [gefitinib]
How it was run: as §1

[3] = compound: COc1cccc2cc(-c3nc([C@H]4CC[C@H](C(=O)O)CC4)n4ncnc(N)c34)[nH]c12
How it was run: as §1

lapatinib = compound: CS(=O)(=O)CCNCc1ccc(-c2ccc3ncnc(Nc4ccc(OCc5cccc(F)c5)c(Cl)c4)c3c2)o1 [lapatinib]
How it was run: as §1

pictilisib = compound: CS(=O)(=O)N1CCN(Cc2cc3nc(-c4cccc5[nH]ncc45)nc(N4CCOCC4)c3s2)CC1 [pictilisib]
How it was run: as §1

[4] = compound: CS(=O)(=O)c1ccc(-c2cnc(N)c(C(=O)Nc3ccccc3)n2)cc1
How it was run: as §1

crizotinib = compound: C[C@@H](Oc1cc(-c2cnn(C3CCNCC3)c2)cnc1N)c1c(Cl)ccc(F)c1Cl [crizotinib]
How it was run: as §1

[5] = compound: C[C@@H]1COCCN1C2=NC(=NC(=C2)C3(CC3)S(=O)(=O)C)C4=C5C=CNC5=CC=C4
How it was run: as §1

[6] = compound: C[C@H](C1=CC=C(C=C1)C(=O)NC2=C3C=CNC3=NC=C2)N
How it was run: as §1

gandotinib = compound: Cc1cc(Nc2cc(CN3CCOCC3)c3nc(C)c(Cc4ccc(Cl)cc4F)n3n2)n[nH]1 [gandotinib]
How it was run: as §1

[7] = compound: Cc1cc(SCc2sc(-c3ccc(C(F)(F)F)cc3)nc2C)ccc1OCC(=O)O
How it was run: as §1

doramapimod = compound: Cc1ccc(-n2nc(C(C)(C)C)cc2NC(=O)Nc2ccc(OCCN3CCOCC3)c3ccccc23)cc1 [doramapimod]
How it was run: as §1

ispinesib = compound: Cc1ccc(C(=O)N(CCCN)[C@@H](c2nc3cc(Cl)ccc3c(=O)n2Cc2ccccc2)C(C)C)cc1 [ispinesib]
How it was run: as §1

duvelisib = compound: C[C@H](Nc1ncnc2nc[nH]c12)c1cc2cccc(Cl)c2c(=O)n1-c1ccccc1 [duvelisib]
How it was run: as §1

tozasertib = compound: Cc1cc(Nc2cc(N3CCN(C)CC3)nc(Sc3ccc(NC(=O)C4CC4)cc3)n2)n[nH]1 [tozasertib]
How it was run: as §1

Target	log2 fold change [1]	log2 fold change (filanesib)	log2 fold change (zotarolimus)	log2 fold change (idasanutlin)	log2 fold change (alisertib)	log2 fold change [2]	log2 fold change (gefitinib)	log2 fold change [3]	log2 fold change (lapatinib)	log2 fold change (pictilisib)	log2 fold change [4]	log2 fold change (crizotinib)	log2 fold change [5]	log2 fold change [6]	log2 fold change (gandotinib)	log2 fold change [7]	log2 fold change (doramapimod)	log2 fold change (ispinesib)	log2 fold change (duvelisib)	log2 fold change (tozasertib)
CD63 (UniProt P08962)	inactive: -0.053	active: -0.336	inactive: -0.01	inactive: -0.051	inactive: -0.069	inactive: -0.031	inactive: -0.076	inactive: 0.096	inactive: -0.002	inactive: 0.032	inactive: 0.039	inactive: -0.076	inactive: 0.009	inactive: -0.013	inactive: -0.023	inactive: -0.022	inactive: 0.033	inactive: -0.092	–	–
CCNT1 (UniProt O60563)	inactive: -0.05	inactive: 0.13	inactive: 0.044	inactive: 0.109	inactive: -0.093	active: -0.371	inactive: 0.021	inactive: -0.158	inactive: 0.098	inactive: -0.049	inactive: -0.124	inactive: -0.088	inactive: -0.098	inactive: 0.13	inactive: -0.1	inactive: 0.076	inactive: 0.181	inactive: -0.277	–	–
CD55 isoform 7 (UniProt P08174)	inactive: -0.115	inactive: 0.086	inactive: 0.001	inactive: 0.038	inactive: -0.144	inactive: 0.012	inactive: 0.104	inactive: -0.136	inactive: 0.031	inactive: 0.005	inactive: -0.023	inactive: 0.081	inactive: -0.096	inactive: -0.14	inactive: 0.052	inactive: -0.031	inactive: 0.02	inactive: 0.132	–	–
CCDC9 (UniProt Q9Y3X0)	inactive: 0.057	inactive: 0.021	inactive: -0.11	inactive: 0.018	inactive: -0.035	inactive: 0.02	inactive: -0.078	inactive: -0.021	inactive: 0.003	inactive: -0.015	inactive: -0.046	inactive: 0.016	inactive: -0.063	inactive: 0.105	inactive: 0.194	inactive: -0.012	inactive: -0.008	inactive: -0.215	–	–
CCNH (UniProt P51946)	inactive: 0.043	inactive: 0.005	inactive: -0.044	inactive: 0.018	inactive: -0.011	inactive: 0.026	inactive: -0.03	inactive: -0.002	inactive: 0.023	inactive: 0.007	inactive: -0.033	inactive: 0.033	inactive: 0.048	inactive: -0.031	inactive: 0.013	inactive: -0.01	inactive: -0.086	inactive: 0.098	–	–
CCNK isoform 4 (UniProt O75909)	inactive: -0.067	inactive: 0.177	inactive: 0.163	inactive: 0.061	inactive: -0.013	inactive: -0.021	inactive: -0.014	inactive: 0.024	inactive: 0.066	inactive: -0.033	inactive: -0.014	inactive: -0.023	inactive: 0.073	inactive: -0.042	active: 0.324	inactive: 0.016	inactive: 0.157	inactive: 0.03	–	–
CD151 (UniProt P48509)	inactive: -0.045	inactive: 0.108	inactive: -0.048	inactive: -0.12	inactive: 0.075	inactive: 0.111	inactive: 0.001	inactive: -0.024	inactive: 0.012	inactive: 0.116	inactive: -0.151	inactive: 0.208	inactive: 0.07	inactive: -0.089	inactive: -0.19	inactive: -0.043	inactive: -0.056	inactive: 0.068	–	–
CC2D1A (UniProt Q6P1N0)	inactive: 0.012	inactive: 0.053	inactive: -0.011	inactive: -0.026	inactive: 1.24	inactive: 0.035	inactive: -0.049	inactive: -0.015	inactive: -0.006	inactive: -0.067	inactive: 0.04	inactive: 0.043	inactive: -0.005	inactive: 0.024	inactive: -0.034	inactive: 0.114	inactive: 0.039	inactive: -0.002	inactive: 0.041	inactive: -0.002
CBS (UniProt P35520)	active: -0.225	inactive: -0.05	inactive: 0.044	inactive: 0.014	inactive: -0.073	inactive: 0.024	inactive: 0.007	inactive: 0.011	inactive: -0.026	inactive: 0.043	inactive: -0.024	inactive: 0.044	inactive: 0.023	inactive: -0.054	inactive: -0.033	inactive: -0.031	inactive: -0.076	inactive: -0.019	–	–
CASC3 (UniProt O15234)	inactive: 0	inactive: 0.17	inactive: -0.105	inactive: 0.038	inactive: -0.051	inactive: 0.16	inactive: 0	inactive: -0.105	inactive: -0.077	inactive: -0.066	inactive: -0.228	active: 0.537	active: -0.412	inactive: 0.243	active: 0.484	inactive: -0.067	inactive: -0.025	inactive: -0.094	–	–
CCZ1 (UniProt P86791)	inactive: 0.052	inactive: -0.062	inactive: 0.044	inactive: -0.015	inactive: -0.072	inactive: -0.036	inactive: 0.013	inactive: 0.018	inactive: -0.005	inactive: -0.047	inactive: 0.022	active: -0.278	inactive: 0.009	inactive: 0.005	inactive: -0.081	inactive: 0.006	inactive: -0.036	inactive: -0.162	–	–
CCAR1 (UniProt Q8IX12)	inactive: 0.018	inactive: -0.105	inactive: 0.011	inactive: -0.041	inactive: -0.056	inactive: -0.02	inactive: 0.027	inactive: 0.014	inactive: 0.003	inactive: -0.072	inactive: 0.004	inactive: -0.238	inactive: 0.034	inactive: -0.016	active: -0.263	inactive: 0.067	inactive: -0.03	inactive: -0.102	–	–
CCAR2 isoform 2 (UniProt Q8N163)	inactive: -0.038	inactive: 0.024	inactive: 0.063	inactive: -0.065	inactive: -0.072	inactive: -0.187	inactive: -0.03	inactive: -0.042	inactive: 0.04	inactive: -0.034	inactive: -0.037	inactive: 0.024	inactive: 0.046	inactive: 0.011	inactive: -0.093	inactive: 0.169	inactive: -0.009	inactive: -0.063	–	–
CCDC158 (UniProt Q5M9N0)	inactive: 0.029	inactive: 0.153	inactive: 0.067	inactive: 0.117	inactive: -0.008	inactive: -0.057	inactive: -0.097	inactive: -0.051	inactive: 0.037	inactive: -0.16	inactive: 0.066	inactive: 0.128	inactive: -0.239	inactive: 0.023	inactive: -0.013	inactive: 0.017	inactive: -0.082	inactive: 0.01	inactive: -0.129	–
CASP3 (UniProt P42574)	inactive: 0.004	inactive: -0.002	inactive: 0.029	inactive: 0.072	inactive: -0.103	inactive: 0.025	inactive: 0.002	inactive: -0.018	inactive: 0.017	inactive: 0.006	inactive: 0.017	inactive: 0.036	inactive: -0.059	inactive: -0.057	inactive: -0.019	inactive: -0.05	inactive: -0.022	inactive: -0.004	–	–
CBX1 (UniProt P83916)	active: 0.41	inactive: -0.016	inactive: 0.008	inactive: 0.038	inactive: -0.059	inactive: -0.086	inactive: 0.021	inactive: 0.003	inactive: 0.037	inactive: -0.046	inactive: -0.03	inactive: 0.001	inactive: 0.043	inactive: -0.08	inactive: 0.004	inactive: -0.056	inactive: 0.105	inactive: 0.04	–	–
CCNB1 (UniProt P14635)	inactive: -0.006	inactive: -0.035	inactive: -0.009	inactive: 0.003	inactive: -0.061	inactive: 0.015	inactive: -0.009	inactive: 0.017	inactive: -0.044	inactive: 0.002	inactive: -0.002	inactive: -0.021	inactive: -0.044	inactive: -0.024	inactive: -0.004	inactive: -0.025	inactive: -0.011	inactive: 0.043	–	–

Record cards, from the list above. Values in the order: log2 fold change [1] | log2 fold change (filanesib) | log2 fold change (zotarolimus) | log2 fold change (idasanutlin) | log2 fold change (alisertib) | log2 fold change [2] | log2 fold change (gefitinib) | log2 fold change [3] | log2 fold change (lapatinib) | log2 fold change (pictilisib) | log2 fold change [4] | log2 fold change (crizotinib) | log2 fold change [5] | log2 fold change [6] | log2 fold change (gandotinib) | log2 fold change [7] | log2 fold change (doramapimod) | log2 fold change (ispinesib) | log2 fold change (duvelisib) | log2 fold change (tozasertib)
CASP3 (UniProt P42574) in the list: inactive: 0.004 | inactive: -0.002 | inactive: 0.029 | inactive: 0.072 | inactive: -0.103 | inactive: 0.025 | inactive: 0.002 | inactive: -0.018 | inactive: 0.017 | inactive: 0.006 | inactive: 0.017 | inactive: 0.036 | inactive: -0.059 | inactive: -0.057 | inactive: -0.019 | inactive: -0.05 | inactive: -0.022 | inactive: -0.004 | – | –
CD151 (UniProt P48509) in the list: inactive: -0.045 | inactive: 0.108 | inactive: -0.048 | inactive: -0.12 | inactive: 0.075 | inactive: 0.111 | inactive: 0.001 | inactive: -0.024 | inactive: 0.012 | inactive: 0.116 | inactive: -0.151 | inactive: 0.208 | inactive: 0.07 | inactive: -0.089 | inactive: -0.19 | inactive: -0.043 | inactive: -0.056 | inactive: 0.068 | – | –
